Laboratory results reported in publication doi:10.1101/792994.
Results are given in words; binding and its absence hold for the method and conditions named. Binding seen in cells or lysates may run through a third protein. Some results given as binding are weak or reduced against the parent protein; the word gives no strength. Where a sequence is shown, tags or fusion partners need not be part of it.

Chains of the proteins cited; added tags and fusions are not shown.
UniProt O60573: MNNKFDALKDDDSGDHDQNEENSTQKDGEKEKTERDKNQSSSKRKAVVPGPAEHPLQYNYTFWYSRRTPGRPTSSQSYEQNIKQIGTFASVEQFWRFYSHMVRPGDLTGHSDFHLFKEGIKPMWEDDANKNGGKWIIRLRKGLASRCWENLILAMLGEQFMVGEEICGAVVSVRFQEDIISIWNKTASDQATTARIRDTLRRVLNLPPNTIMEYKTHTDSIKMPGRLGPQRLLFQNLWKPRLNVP

Molecular target: T1, GIGYF2, endogenously tagged with GFP11 (human) (UniProt Q6Y7W6)
T1 sequence: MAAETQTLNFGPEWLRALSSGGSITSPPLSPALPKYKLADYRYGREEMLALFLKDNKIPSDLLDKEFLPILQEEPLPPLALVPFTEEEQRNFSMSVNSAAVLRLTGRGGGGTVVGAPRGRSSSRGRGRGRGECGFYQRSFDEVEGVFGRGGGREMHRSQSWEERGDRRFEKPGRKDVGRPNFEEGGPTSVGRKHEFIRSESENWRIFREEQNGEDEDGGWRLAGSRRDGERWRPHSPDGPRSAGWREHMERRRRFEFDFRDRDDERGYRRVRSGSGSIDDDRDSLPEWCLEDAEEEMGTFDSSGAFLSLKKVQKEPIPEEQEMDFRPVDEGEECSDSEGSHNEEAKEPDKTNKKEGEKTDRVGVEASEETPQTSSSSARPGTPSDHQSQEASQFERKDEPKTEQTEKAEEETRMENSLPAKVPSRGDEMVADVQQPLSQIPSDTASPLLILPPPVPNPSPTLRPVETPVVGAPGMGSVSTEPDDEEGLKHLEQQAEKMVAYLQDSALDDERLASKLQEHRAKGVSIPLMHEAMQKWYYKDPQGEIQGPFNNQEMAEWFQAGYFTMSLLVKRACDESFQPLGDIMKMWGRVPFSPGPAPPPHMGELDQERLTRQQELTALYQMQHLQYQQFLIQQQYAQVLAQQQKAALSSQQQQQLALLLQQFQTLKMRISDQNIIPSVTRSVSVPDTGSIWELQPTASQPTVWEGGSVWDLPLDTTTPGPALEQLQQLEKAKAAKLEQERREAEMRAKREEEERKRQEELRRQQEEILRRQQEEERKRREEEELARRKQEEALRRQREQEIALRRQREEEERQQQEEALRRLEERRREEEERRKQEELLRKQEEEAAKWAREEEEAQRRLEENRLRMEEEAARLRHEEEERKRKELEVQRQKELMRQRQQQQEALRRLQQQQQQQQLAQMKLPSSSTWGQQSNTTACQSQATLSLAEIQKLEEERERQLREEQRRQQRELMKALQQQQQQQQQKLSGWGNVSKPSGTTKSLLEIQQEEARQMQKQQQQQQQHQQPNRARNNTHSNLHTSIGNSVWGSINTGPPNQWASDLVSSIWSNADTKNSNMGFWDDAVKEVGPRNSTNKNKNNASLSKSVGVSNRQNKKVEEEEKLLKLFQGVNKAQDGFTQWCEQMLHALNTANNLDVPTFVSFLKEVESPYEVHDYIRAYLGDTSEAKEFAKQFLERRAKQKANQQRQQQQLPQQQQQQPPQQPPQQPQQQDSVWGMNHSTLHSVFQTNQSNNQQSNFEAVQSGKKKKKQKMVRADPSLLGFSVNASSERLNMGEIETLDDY
Experiment: co-IP

For 4EHP (from UniProt O60573 1-245), the binding was “binds”.

B1: ZNF598 (protein, UniProt Q86UK7 1-904)
chain: MAAAGGAEGRRAALEAAAAAAPERGGGSCVLCCGDLEATALGRCDHPVCYRCSTKMRVLCEQRYCAVCREELRQVVFGKKLPAFATIPIHQLQHEKKYDIYFADGKVYALYRQLLQHECPRCPELPPFSLFGDLEQHMRRQHELFCCRLCLQHLQIFTYERKWYSRKDLARHRMQGDPDDTSHRGHPLCKFCDERYLDNDELLKHLRRDHYFCHFCDSDGAQDYYSDYAYLREHFREKHFLCEEGRCSTEQFTHAFRTEIDLKAHRTACHSRSRAEARQNRHIDLQFSYAPRHSRRNEGVVGGEDYEEVDRYSRQGRVARAGTRGAQQSRRGSWRYKREEEDREVAAAVRASVAAQQQEEARRSEDQEEGGRPKKEEAAARGPEDPRGPRRSPRTQGEGPGPKETSTNGPVSQEAFSVTGPAAPGCVGVPGALPPPSPKLKDEDFPSLSASTSSSCSTAATPGPVGLALPYAIPARGRSAFQEEDFPALVSSVPKPGTAPTSLVSAWNSSSSSKKVAQPPLSAQATGSGQPTRKAGKGSRGGRKGGPPFTQEEEEDGGPALQELLSTRPTGSVSSTLGLASIQPSKVGKKKKVGSEKPGTTLPQPPPATCPPGALQAPEAPASRAEGPVAVVVNGHTEGPAPARSAPKEPPGLPRPLGSFPCPTPQEDFPALGGPCPPRMPPPPGFSAVVLLKGTPPPPPPGLVPPISKPPPGFSGLLPSPHPACVPSPATTTTTKAPRLLPAPRAYLVPENFRERNLQLIQSIRDFLQSDEARFSEFKSHSGEFRQGLISAAQYYKSCRDLLGENFQKVFNELLVLLPDTAKQQELLSAHTDFCNREKPLSTKSKKNKKSAWQATTQQAGLDCRVCPTCQQVLAHGDASSHQALHAARDDDFPSLQAIARIIT
In the case of B1, the binding is reported as “binds”.
